# Laboratory results reported in the supplement of paper PMC8728848.
# The list shows a part of the results.
# B1: Vd7LysM (Verticillium dahliae) (protein)
# chain: RRGPEPKYPPAAGTSSYCSYWVDYEGDKSCSRVLEDNVVVLKDFARWNPTVGADCSGIKAGNSYCVEAFGEPEPIEVTTTTRAATTTTQPTATTTTFANGIATPQPTQSGMVTNCNKFHWIAEGVSCSQVISFQKITLADFVKWNPSVKSDCSGMWAGVNVCVGVVGSSTDTAKPTTTAPSNGVVTPQPTQPSMVTNCNKFHWIAKGVTCQQVISYQKISLADFVKWNPSVLSDCSGMWAEVQVCVGVIGSTPTTLATTTTTAGNGVSTPLPTQPGMVTNCAKFHWVAKGVTCNQIYSFQKITLEQFVSYNPTVKSDCSGMQAEVQVCVGLIAGTTPTTTRPPTTTAPGNGVSTPQPTQPGMVTNCAKFHWVAKGVTCNQIYSFQKITLEQFVSFNPTVKSDCTGMQAEVNVCVGLIGGNPTPTQTGNGIATPTPIQPGMVSNCKKFHWIAQGVTCQQVISFQKITLADFVKWNTGVGSDCRTMWAETNVCVGV
# Columns and labels:
# Assay in all cases: glycan array binding signal (z-score within array); higher = stronger binding
# Conditions in all cases: glycan notation: IUPAC condensed, linker removed
# [1] = biological target: Fuc(a1-2)Gal(b1-4)GlcNAc(b1-3)Gal(b1-4)GlcNAc(b1-3)Gal(b1-4)GlcNAc
# How it was run: (§1)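 Glycan array binding is given as a within-array Z-score, which can be read as non-binding when negative. The arrays, 3228 of them, came from the Consortium for Functional Glycomics database and were retained only where the protein sequence was available. Z-scores were averaged across arrays of the same protein sequence at different concentrations or buffers and across linkers.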
# [2] = biological target: Fuc(a1-2)Gal(b1-4)GlcNAc(b1-3)GalNAc
# How it was run: as §1
# [3] = biological target: Fuc(a1-2)Gal(b1-4)GlcNAc(b1-3)[Fuc(a1-2)Gal(b1-4)GlcNAc(b1-6)]GalNAc
# How it was run: as §1
# [4] = biological target: Fuc(a1-2)Gal(b1-4)GlcNAc(b1-3)[Fuc(a1-3)[Gal(b1-4)]GlcNAc(b1-6)]Gal(b1-4)Glc
# How it was run: as §1
# [5] = biological target: Fuc(a1-2)Gal(b1-4)GlcNAc(b1-6)GalNAc
# How it was run: as §1
# [6] = biological target: Fuc(a1-2)Gal(b1-4)GlcNAc6S
# How it was run: as §1
# [7] = biological target: Fuc(a1-2)Gal(b1-4)[Fuc(a1-3)]GlcNAc
# How it was run: as §1
# [8] = biological target: Fuc(a1-2)Gal(b1-4)[Fuc(a1-3)]GlcNAc(b1-2)Man(a1-3)[Fuc(a1-2)Gal(b1-4)[Fuc(a1-3)]GlcNAc(b1-2)Man(a1-6)]Man(b1-4)GlcNAc(b1-4)[Fuc(a1-6)]GlcNAc
# How it was run: as §1
# [9] = biological target: Fuc(a1-2)Gal(b1-4)[Fuc(a1-3)]GlcNAc(b1-2)[Fuc(a1-2)Gal(b1-4)[Fuc(a1-3)]GlcNAc(b1-4)]Man(a1-3)[Fuc(a1-2)Gal(b1-4)[Fuc(a1-3)]GlcNAc(b1-2)Man(a1-6)]Man(b1-4)GlcNAc(b1-4)GlcNAc
# How it was run: as §1
# [10] = biological target: Fuc(a1-2)Gal(b1-4)[Fuc(a1-3)]GlcNAc(b1-3)Gal(b1-4)[Fuc(a1-3)]GlcNAc
# How it was run: as §1
# [11] = biological target: Fuc(a1-2)Gal(b1-4)[Fuc(a1-3)]GlcNAc(b1-3)Gal(b1-4)[Fuc(a1-3)]GlcNAc(b1-3)Gal(b1-4)[Fuc(a1-3)]GlcNAc
# How it was run: as §1
# [12] = biological target: Fuc(a1-2)Gal(b1-4)[Fuc(a1-3)]GlcNAc(b1-3)GalNAc
# How it was run: as §1
# [13] = biological target: Fuc(a1-2)Gal(b1-4)[Fuc(a1-3)]GlcNAc(b1-3)[Neu5Ac(a2-6)Gal(b1-4)GlcNAc(b1-6)]Gal(b1-4)Glc
# How it was run: as §1
# [14] = biological target: Fuc(a1-2)Gal3S(b1-4)GlcNAc
# How it was run: as §1
# [15] = biological target: Fuc(a1-2)Gal6S(b1-3)GlcNAc
# How it was run: as §1
# [16] = biological target: Fuc(a1-2)Gal6S(b1-3)GlcNAc6S
# How it was run: as §1
# Fuc(a1-2)Gal6S(b1-4)Glc = biological target: Fuc(a1-2)Gal6S(b1-4)Glc
# How it was run: as §1
# [17] = biological target: Fuc(a1-2)Gal6S(b1-4)Glc6S
# How it was run: as §1
# Fuc(a1-2)[Gal(a1-3)]Gal = biological target: Fuc(a1-2)[Gal(a1-3)]Gal
# How it was run: as §1
# [18] = biological target: Fuc(a1-2)[Gal(a1-3)]Gal(b1-3)GalNAc
# How it was run: as §1
# [19] = biological target: Fuc(a1-2)[Gal(a1-3)]Gal(b1-3)GalNAc(b1-3)Gal(a1-4)Gal(b1-4)Glc
# How it was run: as §1
# [20] = biological target: Fuc(a1-2)[Gal(a1-3)]Gal(b1-3)GlcNAc
# How it was run: as §1
# [21] = biological target: Fuc(a1-2)[Gal(a1-3)]Gal(b1-3)GlcNAc(b1-2)Man(a1-3)[Fuc(a1-2)[Gal(a1-3)]Gal(b1-3)GlcNAc(b1-2)Man(a1-6)]Man(b1-4)GlcNAc(b1-4)GlcNAc
# How it was run: as §1
# [22] = biological target: Fuc(a1-2)[Gal(a1-3)]Gal(b1-3)GlcNAc(b1-2)Man(a1-3)[Fuc(a1-2)[Gal(a1-3)]Gal(b1-3)GlcNAc(b1-2)Man(a1-6)]Man(b1-4)GlcNAc(b1-4)[Fuc(a1-6)]GlcNAc
# How it was run: as §1
# [23] = biological target: Fuc(a1-2)[Gal(a1-3)]Gal(b1-3)GlcNAc(b1-3)GalNAc
# How it was run: as §1
# [24] = biological target: Fuc(a1-2)[Gal(a1-3)]Gal(b1-3)GlcNAc(b1-6)GalNAc
# How it was run: as §1
# [25] = biological target: Fuc(a1-2)[Gal(a1-3)]Gal(b1-4)Glc
# How it was run: as §1
# [26] = biological target: Fuc(a1-2)[Gal(a1-3)]Gal(b1-4)GlcNAc
# How it was run: as §1
# [27] = biological target: Fuc(a1-2)[Gal(a1-3)]Gal(b1-4)GlcNAc(b1-2)Man
# How it was run: as §1
# [28] = biological target: Fuc(a1-2)[Gal(a1-3)]Gal(b1-4)GlcNAc(b1-2)Man(a1-3)[Fuc(a1-2)[Gal(a1-3)]Gal(b1-4)GlcNAc(b1-2)Man(a1-6)]Man(b1-4)GlcNAc(b1-4)GlcNAc
# How it was run: as §1
# [29] = biological target: Fuc(a1-2)[Gal(a1-3)]Gal(b1-4)GlcNAc(b1-2)Man(a1-3)[Fuc(a1-2)[Gal(a1-3)]Gal(b1-4)GlcNAc(b1-2)Man(a1-6)]Man(b1-4)GlcNAc(b1-4)[Fuc(a1-6)]GlcNAc
# How it was run: as §1
# [30] = biological target: Fuc(a1-2)[Gal(a1-3)]Gal(b1-4)GlcNAc(b1-3)GalNAc
# How it was run: as §1
# [31] = biological target: Fuc(a1-2)[Gal(a1-3)]Gal(b1-4)GlcNAc(b1-3)[Fuc(a1-2)[Gal(a1-3)]Gal(b1-4)GlcNAc(b1-6)]GalNAc
# How it was run: as §1
# [32] = biological target: Fuc(a1-2)[Gal(a1-3)]Gal(b1-4)GlcNAc(b1-6)GalNAc
# How it was run: as §1
# [33] = biological target: Fuc(a1-2)[Gal(a1-3)]Gal(b1-4)[Fuc(a1-3)]Glc
# How it was run: as §1
# [34] = biological target: Fuc(a1-2)[Gal(a1-3)]Gal(b1-4)[Fuc(a1-3)]GlcNAc
# How it was run: as §1
# [35] = biological target: Fuc(a1-2)[Gal(a1-3)]Gal(b1-4)[Fuc(a1-3)]GlcNAc(b1-3)GalNAc
# How it was run: as §1
binder,measurement,setting,value
B1,glycan array binding signal (z-score),[1],3.25
same,glycan array binding signal (z-score),[2],0.678
same,glycan array binding signal (z-score),[3],-0.836
same,glycan array binding signal (z-score),[4],-0.245
same,glycan array binding signal (z-score),[5],0.512
same,glycan array binding signal (z-score),[6],2.14
same,glycan array binding signal (z-score),[7],0.288
same,glycan array binding signal (z-score),[8],2.24
same,glycan array binding signal (z-score),[9],0.129
same,glycan array binding signal (z-score),[10],1.8
same,glycan array binding signal (z-score),[11],-0.384
same,glycan array binding signal (z-score),[12],1.17
same,glycan array binding signal (z-score),[13],-0.181
same,glycan array binding signal (z-score),[14],-1.02
same,glycan array binding signal (z-score),[15],-0.291
same,glycan array binding signal (z-score),[16],-0.732
same,glycan array binding signal (z-score),Fuc(a1-2)Gal6S(b1-4)Glc,-0.066
same,glycan array binding signal (z-score),[17],0.638
same,glycan array binding signal (z-score),Fuc(a1-2)[Gal(a1-3)]Gal,0.38
same,glycan array binding signal (z-score),[18],-0.534
same,glycan array binding signal (z-score),[19],-1.54
same,glycan array binding signal (z-score),[20],-0.681
same,glycan array binding signal (z-score),[21],1.06
same,glycan array binding signal (z-score),[22],0.42
same,glycan array binding signal (z-score),[23],-0.679
same,glycan array binding signal (z-score),[24],-0.24
same,glycan array binding signal (z-score),[25],0.731
same,glycan array binding signal (z-score),[26],0.191
same,glycan array binding signal (z-score),[27],0.793
same,glycan array binding signal (z-score),[28],-1.74
same,glycan array binding signal (z-score),[29],-1.3
same,glycan array binding signal (z-score),[30],0.726
same,glycan array binding signal (z-score),[31],-0.425
same,glycan array binding signal (z-score),[32],0.845
same,glycan array binding signal (z-score),[33],0.734
same,glycan array binding signal (z-score),[34],0.347
same,glycan array binding signal (z-score),[35],0.585

# In a second layout: entries from further up.
binder	measurement	setting	value
B1	glycan array binding signal (z-score)	[7]	0.288
same	glycan array binding signal (z-score)	[8]	2.24
